Results taken from paper PMC7081327.
These are yes or no findings as the source states them, for the method shown. In cells and extracts the contact can be indirect. Some results given as binding are weak or reduced against the parent protein; the word gives no strength.

Target: HA-TAZ, Q9GZV5
Assay: co-IP; HEK293 cells with GFP or TEADi; IP lysis buffer 50 mM Tris-Cl pH 7.5, 150 mM NaCl, 10% glycerol, 2 mM MgCl2, 1% NP40; antibody overnight at 4 °C with Dynabeads Protein G; western blot (Fig. 1c)
Details: remark: other sources report otherwise

B1: LATS1, O95835 1-1130 (protein)
chain: MKRSEKPEGYRQMRPKTFPASNYTVSSRQMLQEIRESLRNLSKPSDAAKAEHNMSKMSTEDPRQVRNPPKFGTHHKALQEIRNSLLPFANETNSSRSTSEVNPQMLQDLQAAGFDEDMVIQALQKTNNRSIEAAIEFISKMSYQDPRREQMAAAAARPINASMKPGNVQQSVNRKQSWKGSKESLVPQRHGPPLGESVAYHSESPNSQTDVGRPLSGSGISAFVQAHPSNGQRVNPPPPPQVRSVTPPPPPRGQTPPPRGTTPPPPSWEPNSQTKRYSGNMEYVISRISPVPPGAWQEGYPPPPLNTSPMNPPNQGQRGISSVPVGRQPIIMQSSSKFNFPSGRPGMQNGTGQTDFMIHQNVVPAGTVNRQPPPPYPLTAANGQSPSALQTGGSAAPSSYTNGSIPQSMMVPNRNSHNMELYNISVPGLQTNWPQSSSAPAQSSPSSGHEIPTWQPNIPVRSNSFNNPLGNRASHSANSQPSATTVTAITPAPIQQPVKSMRVLKPELQTALAPTHPSWIPQPIQTVQPSPFPEGTASNVTVMPPVAEAPNYQGPPPPYPKHLLHQNPSVPPYESISKPSKEDQPSLPKEDESEKSYENVDSGDKEKKQITTSPITVRKNKKDEERRESRIQSYSPQAFKFFMEQHVENVLKSHQQRLHRKKQLENEMMRVGLSQDAQDQMRKMLCQKESNYIRLKRAKMDKSMFVKIKTLGIGAFGEVCLARKVDTKALYATKTLRKKDVLLRNQVAHVKAERDILAEADNEWVVRLYYSFQDKDNLYFVMDYIPGGDMMSLLIRMGIFPESLARFYIAELTCAVESVHKMGFIHRDIKPDNILIDRDGHIKLTDFGLCTGFRWTHDSKYYQSGDHPRQDSMDFSNEWGDPSSCRCGDRLKPLERRAARQHQRCLAHSLVGTPNYIAPEVLLRTGYTQLCDWWSVGVILFEMLVGQPPFLAQTPLETQMKVINWQTSLHIPPQAKLSPEASDLIIKLCRGPEDRLGKNGADEIKAHPFFKTIDFSSDLRQQSASYIPKITHPTDTSNFDPVDPDKLWSDDNEEENVNDTLNGWYKNGKHPEHAFYEFTFRRFFDDNGYPYNYPKPIEYEYINSQGSEQQSDEDDQNTGSEIKNRDLVYV
  binding: binds
